Some of the results follow.
The targets below were run with c1cc(OCCN2CCCCC2)cc(-c2n[nH]c3ccc(-c4nnc[nH]4)cc23)c1 (assay: log2 fold change, soluble protein after heating vs DMSO (PISA); higher = thermal stabilisation; K562 cells, 10 uM, 30 min; active = over 0.2 and 3.5 SD of the protein, either way, in both replicates (recomputed)).
Method in brief: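 K562 cells at 2×10^6 cells/mL were treated with 10 μM compound for 30 min. Aliquots were heated for 3 min across 48°C-58°C, pooled, and extracted in PBS with 0.5% NP-40 at 4°C; soluble protein was the supernatant after 21,000xg for 90 min. Soluble protein was quantified by TMTpro 16plex LC-MS/MS with channel sums equalised, and reported as log2 fold change in thermal stability against DMSO controls, with values from duplicates.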

Sequences of proteins named here, by UniProt entry; tags and fusion partners are left off. A change or cut given only in a name is not applied to a line headed by its entry.
UniProt P35914: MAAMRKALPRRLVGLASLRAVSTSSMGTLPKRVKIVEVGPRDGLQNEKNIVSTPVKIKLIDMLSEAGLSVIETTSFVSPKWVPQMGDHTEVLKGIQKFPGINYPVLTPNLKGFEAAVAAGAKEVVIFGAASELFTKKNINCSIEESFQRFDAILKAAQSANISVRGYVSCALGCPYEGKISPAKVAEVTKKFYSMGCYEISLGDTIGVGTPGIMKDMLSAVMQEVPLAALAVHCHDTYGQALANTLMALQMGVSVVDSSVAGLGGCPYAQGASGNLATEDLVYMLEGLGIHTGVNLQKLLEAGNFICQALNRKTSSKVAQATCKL
UniProt P49773: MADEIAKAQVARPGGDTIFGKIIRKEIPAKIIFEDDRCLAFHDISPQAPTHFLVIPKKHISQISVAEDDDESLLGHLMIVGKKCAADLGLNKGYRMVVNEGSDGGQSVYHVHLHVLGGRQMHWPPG
UniProt H0YH80: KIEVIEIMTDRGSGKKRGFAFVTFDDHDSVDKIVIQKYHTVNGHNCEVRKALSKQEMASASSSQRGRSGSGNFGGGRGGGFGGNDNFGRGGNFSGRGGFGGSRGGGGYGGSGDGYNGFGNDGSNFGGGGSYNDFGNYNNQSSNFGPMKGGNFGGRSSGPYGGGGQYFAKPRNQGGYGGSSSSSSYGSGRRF
UniProt O00291: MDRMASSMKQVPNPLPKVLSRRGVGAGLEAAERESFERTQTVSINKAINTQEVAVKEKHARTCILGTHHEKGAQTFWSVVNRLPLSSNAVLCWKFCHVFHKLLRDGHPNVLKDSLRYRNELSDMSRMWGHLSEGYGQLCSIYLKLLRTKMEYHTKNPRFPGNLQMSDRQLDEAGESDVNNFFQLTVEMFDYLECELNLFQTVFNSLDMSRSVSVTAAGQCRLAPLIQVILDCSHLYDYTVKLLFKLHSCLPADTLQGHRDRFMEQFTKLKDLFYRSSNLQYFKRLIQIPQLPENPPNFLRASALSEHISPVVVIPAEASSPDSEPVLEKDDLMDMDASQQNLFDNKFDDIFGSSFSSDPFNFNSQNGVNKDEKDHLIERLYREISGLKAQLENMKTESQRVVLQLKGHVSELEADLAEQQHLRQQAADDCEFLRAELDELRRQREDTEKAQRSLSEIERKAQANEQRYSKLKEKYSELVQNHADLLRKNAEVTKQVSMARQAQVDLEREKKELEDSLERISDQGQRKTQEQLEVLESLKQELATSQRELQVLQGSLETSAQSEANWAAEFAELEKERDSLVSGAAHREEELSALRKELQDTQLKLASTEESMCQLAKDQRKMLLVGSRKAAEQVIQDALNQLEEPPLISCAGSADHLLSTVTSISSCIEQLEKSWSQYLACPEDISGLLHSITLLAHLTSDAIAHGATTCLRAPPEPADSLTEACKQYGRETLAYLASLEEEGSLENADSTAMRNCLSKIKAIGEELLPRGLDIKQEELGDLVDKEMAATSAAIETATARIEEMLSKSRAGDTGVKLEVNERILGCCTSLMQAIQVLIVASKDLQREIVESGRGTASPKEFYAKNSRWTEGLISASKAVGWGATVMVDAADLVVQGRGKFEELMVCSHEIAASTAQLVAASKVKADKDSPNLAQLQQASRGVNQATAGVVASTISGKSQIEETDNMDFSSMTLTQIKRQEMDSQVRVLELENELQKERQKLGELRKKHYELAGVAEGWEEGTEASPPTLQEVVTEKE
UniProt Q1KMD3: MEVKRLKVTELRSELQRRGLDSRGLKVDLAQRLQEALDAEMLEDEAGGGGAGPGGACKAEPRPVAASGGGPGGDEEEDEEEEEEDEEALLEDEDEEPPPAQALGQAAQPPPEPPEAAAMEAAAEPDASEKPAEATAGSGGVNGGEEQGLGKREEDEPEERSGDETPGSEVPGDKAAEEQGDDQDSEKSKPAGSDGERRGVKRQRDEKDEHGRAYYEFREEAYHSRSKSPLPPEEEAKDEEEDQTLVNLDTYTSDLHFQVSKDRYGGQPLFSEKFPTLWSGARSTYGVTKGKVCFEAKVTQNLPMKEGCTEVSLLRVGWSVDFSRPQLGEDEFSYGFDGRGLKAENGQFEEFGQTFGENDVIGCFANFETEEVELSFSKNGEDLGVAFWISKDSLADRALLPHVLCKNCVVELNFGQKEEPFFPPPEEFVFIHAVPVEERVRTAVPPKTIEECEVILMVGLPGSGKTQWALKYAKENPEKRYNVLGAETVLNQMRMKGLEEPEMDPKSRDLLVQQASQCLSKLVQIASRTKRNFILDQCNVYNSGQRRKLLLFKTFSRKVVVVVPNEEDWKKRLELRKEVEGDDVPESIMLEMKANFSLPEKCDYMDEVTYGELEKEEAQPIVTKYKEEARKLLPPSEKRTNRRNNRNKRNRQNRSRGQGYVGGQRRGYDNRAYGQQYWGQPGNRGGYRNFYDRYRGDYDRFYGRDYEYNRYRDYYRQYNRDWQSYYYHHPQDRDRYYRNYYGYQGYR
UniProt Q0VDF9: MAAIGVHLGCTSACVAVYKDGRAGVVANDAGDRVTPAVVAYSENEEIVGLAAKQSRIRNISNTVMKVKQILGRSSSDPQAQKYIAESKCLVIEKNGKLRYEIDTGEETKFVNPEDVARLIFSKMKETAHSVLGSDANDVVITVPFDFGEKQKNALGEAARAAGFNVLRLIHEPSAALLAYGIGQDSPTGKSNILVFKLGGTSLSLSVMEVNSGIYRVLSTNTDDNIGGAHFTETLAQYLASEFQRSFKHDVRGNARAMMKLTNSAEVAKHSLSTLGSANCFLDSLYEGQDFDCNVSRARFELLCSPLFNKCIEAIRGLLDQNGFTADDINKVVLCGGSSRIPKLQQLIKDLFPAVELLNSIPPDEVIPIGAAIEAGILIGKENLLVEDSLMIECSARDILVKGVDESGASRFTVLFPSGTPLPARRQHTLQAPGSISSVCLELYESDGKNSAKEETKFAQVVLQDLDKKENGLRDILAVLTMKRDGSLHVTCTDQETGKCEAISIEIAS
UniProt O75146: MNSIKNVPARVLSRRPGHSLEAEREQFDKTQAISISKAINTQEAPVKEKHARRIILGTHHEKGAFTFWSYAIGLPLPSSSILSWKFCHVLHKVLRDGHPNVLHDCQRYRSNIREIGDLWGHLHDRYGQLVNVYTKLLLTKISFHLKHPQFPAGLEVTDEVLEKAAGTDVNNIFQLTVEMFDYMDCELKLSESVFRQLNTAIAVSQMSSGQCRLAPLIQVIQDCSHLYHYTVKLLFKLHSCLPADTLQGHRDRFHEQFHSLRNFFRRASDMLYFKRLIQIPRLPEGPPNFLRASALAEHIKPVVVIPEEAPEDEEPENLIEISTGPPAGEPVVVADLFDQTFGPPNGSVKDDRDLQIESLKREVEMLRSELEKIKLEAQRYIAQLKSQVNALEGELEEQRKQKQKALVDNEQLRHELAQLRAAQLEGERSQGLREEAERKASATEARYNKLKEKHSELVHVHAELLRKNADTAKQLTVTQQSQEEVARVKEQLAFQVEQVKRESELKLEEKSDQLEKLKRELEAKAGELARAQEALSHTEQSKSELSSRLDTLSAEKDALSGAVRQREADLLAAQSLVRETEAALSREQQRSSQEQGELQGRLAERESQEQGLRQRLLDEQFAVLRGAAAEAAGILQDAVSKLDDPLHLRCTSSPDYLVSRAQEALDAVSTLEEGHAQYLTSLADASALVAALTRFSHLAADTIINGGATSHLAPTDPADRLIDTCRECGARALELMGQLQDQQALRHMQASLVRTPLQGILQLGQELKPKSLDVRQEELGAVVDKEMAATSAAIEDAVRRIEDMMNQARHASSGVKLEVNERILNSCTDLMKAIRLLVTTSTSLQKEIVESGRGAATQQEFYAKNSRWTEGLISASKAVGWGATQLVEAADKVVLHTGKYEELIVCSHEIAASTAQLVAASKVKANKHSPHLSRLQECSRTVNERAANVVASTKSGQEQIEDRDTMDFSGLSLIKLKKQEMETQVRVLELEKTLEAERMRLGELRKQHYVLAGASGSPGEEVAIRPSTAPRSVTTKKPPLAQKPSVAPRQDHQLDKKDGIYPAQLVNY
UniProt Q53GQ0: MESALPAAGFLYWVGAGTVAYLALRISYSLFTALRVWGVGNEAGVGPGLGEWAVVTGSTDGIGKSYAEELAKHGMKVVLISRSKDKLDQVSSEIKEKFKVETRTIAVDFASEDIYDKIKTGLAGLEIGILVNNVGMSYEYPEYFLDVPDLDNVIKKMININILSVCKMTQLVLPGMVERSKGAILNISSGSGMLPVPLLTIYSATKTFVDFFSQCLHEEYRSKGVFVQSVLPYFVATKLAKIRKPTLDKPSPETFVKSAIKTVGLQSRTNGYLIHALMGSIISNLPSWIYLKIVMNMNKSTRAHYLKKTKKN
UniProt O14964, whole entry, looked up: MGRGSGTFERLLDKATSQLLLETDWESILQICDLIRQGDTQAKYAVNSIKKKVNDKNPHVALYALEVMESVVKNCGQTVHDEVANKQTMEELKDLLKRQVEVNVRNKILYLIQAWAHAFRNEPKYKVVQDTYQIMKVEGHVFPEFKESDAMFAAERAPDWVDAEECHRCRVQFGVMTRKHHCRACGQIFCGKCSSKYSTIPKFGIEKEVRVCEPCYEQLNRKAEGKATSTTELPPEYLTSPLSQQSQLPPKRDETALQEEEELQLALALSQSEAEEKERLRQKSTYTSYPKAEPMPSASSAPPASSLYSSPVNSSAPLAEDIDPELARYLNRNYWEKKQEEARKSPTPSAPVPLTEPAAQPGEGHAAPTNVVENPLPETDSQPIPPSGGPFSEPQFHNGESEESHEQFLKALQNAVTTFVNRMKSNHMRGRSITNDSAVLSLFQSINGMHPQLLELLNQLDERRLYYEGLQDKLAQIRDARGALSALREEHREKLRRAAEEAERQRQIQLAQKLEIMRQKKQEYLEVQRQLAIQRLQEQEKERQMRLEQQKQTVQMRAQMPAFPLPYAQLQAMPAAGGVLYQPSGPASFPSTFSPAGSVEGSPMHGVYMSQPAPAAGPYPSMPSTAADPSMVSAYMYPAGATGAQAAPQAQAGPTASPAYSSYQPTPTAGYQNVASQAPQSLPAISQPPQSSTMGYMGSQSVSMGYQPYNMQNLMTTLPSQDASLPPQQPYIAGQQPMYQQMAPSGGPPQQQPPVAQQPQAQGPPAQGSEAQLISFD
UniProt O95757: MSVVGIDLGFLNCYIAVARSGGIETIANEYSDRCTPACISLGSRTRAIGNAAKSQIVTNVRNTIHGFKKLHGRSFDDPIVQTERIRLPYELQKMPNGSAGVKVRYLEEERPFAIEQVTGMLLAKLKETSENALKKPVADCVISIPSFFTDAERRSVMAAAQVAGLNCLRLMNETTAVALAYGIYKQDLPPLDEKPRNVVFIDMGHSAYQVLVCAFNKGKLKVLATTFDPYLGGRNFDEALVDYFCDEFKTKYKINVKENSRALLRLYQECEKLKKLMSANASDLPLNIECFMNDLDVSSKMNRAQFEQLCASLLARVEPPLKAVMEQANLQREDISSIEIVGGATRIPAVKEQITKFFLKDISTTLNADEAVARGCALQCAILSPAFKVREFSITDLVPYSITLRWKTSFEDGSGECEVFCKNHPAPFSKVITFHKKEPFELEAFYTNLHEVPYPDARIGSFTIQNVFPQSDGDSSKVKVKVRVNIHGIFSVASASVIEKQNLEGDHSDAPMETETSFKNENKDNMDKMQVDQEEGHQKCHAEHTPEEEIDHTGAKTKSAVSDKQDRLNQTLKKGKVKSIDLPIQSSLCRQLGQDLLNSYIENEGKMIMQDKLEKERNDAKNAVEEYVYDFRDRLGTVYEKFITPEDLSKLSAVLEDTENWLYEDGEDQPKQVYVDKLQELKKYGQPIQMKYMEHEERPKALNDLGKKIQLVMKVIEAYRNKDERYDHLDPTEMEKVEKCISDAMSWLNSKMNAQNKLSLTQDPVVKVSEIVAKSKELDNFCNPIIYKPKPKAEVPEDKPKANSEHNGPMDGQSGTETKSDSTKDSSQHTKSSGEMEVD
UniProt Q3SXM5: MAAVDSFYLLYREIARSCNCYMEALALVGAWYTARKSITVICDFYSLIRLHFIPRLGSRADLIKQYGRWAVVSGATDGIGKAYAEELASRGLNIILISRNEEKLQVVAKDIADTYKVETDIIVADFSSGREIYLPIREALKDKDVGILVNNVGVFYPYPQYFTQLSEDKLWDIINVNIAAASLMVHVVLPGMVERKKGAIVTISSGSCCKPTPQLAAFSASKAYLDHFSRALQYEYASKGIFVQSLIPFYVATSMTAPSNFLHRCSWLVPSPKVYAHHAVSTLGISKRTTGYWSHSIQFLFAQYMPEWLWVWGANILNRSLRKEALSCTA
UniProt Q9BUP3: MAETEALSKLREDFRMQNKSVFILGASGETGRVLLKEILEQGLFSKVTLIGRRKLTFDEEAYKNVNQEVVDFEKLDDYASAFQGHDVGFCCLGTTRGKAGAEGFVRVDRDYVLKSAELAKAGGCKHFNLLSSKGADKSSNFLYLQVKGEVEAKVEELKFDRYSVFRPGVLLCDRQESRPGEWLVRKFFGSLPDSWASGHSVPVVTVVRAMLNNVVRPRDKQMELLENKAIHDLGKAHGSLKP

log2 fold change, inactive:
HIRIP3 (UniProt Q9BW71) -0.023
HMBS (UniProt P08397) 0.017
HMGCL (UniProt P35914) 0.021
HINT1 (UniProt P49773) -0.027
HNRNPA1 (UniProt H0YH80) -0.179
HYOU1, A0A494C039 -0.201
HIP1 (UniProt O00291) 0.06
HNRNPUL2 (UniProt Q1KMD3) -0.104
HSD17B4 (UniProt P51659) -0.01
HSPA8 (UniProt P11142) -0.034
HSPA14 (UniProt Q0VDF9) -0.115
HIP1R (UniProt O75146) -0.005
HSD17B12 (UniProt Q53GQ0) -0.082
HMGCS1 (UniProt Q01581) -0.033
HGS (UniProt O14964) -0.015
HMGB1 (UniProt P09429) 0.162
HM13 isoform 2 (UniProt Q8TCT9) -0.073
HNRNPK isoform 2 (UniProt P61978) -0.038
HSPA6 (UniProt P17066) -0.04
HMGN4 (UniProt O00479) 0.4
HSPA8 (UniProt E9PN89) -0.394
IDE (UniProt P14735) -0.017
HNRNPDL (UniProt O14979) -0.091
HUWE1 (UniProt Q7Z6Z7) -0.024
HSPA4L (UniProt O95757) 0.019
HMGN5 (UniProt Q5JSK9) -0.357
HLCS (UniProt P50747) 0.027
HIST2H2BC (UniProt Q6DN03) -0.244
HHEX (UniProt Q03014) -0.016
HMGN3 (UniProt Q15651) -0.113
HTD2 (UniProt P86397) 0.005
HSDL1 (UniProt Q3SXM5) -0.038
HTATIP2 isoform 3 (UniProt Q9BUP3) -0.045

Eight consecutive records out of the list so far, for reference:
log2 fold change, inactive:
HYOU1, A0A494C039 -0.201
HIP1 (UniProt O00291) 0.06
HNRNPUL2 (UniProt Q1KMD3) -0.104
HSD17B4 (UniProt P51659) -0.01
HSPA8 (UniProt P11142) -0.034
HSPA14 (UniProt Q0VDF9) -0.115
HIP1R (UniProt O75146) -0.005
HSD17B12 (UniProt Q53GQ0) -0.082
